This is one part of the list. The main result of the screen is listed elsewhere. These columns were measured beside it and carry no call. Most of these compounds were active or inconclusive in the main read-out, so they are no random draw. Words in brackets tell the shape of the fitted curve; partial curves, single points and poor fits give uncertain potencies.

What is called AC50 is the midpoint of the concentration-response curve, whichever way the signal moves.

A short description of the assay: qHTS Assay for Identifying the Cell-Membrane Permeable IMPase Inhibitors. The note with it: CHO-M1 cells, IP1 accumulation, HTRF TR-FRET ratio; measured here: donor channel 620 nm AC50.
Turning to `Cc1cccc(NC(=O)C2CC(O)CN2C(=O)OCc2ccccc2)c1` (stereo unspecified), the AC50 is 2 µM [falling, partial curve].
With `COc1cnn(-c2ccccc2)c(=O)c1SCc1ccc(Cl)c(Cl)c1` the figure was 3.16 µM [rising, full curve]; with `COc1ccc(NC(C)=O)cc1NC(=O)CSc1nnc(-c2cccnc2)n1C`, 2.51 µM [rising, partial curve]; with `O=C(c1ccncc1)N(Cc1ccccc1)Cc1nc2ccccc2c(=O)[nH]1`, 1.12 µM [falling, full curve, poor fit].
With `COc1ccc(C(=O)N2CCCC(c3nc(-c4cccs4)no3)C2)cc1OC` (stereo unspecified) the figure was 0.01 µM [rising, full curve, poor fit].
The same measure for `Cc1ccc(N2CC(C(=O)N/N=C/c3cccc([N+](=O)[O-])c3)CC2=O)cc1` (stereo unspecified): 5.62 µM [rising, single point].
Turning to `CCOC(=O)c1cc(C)n(-n2cnnc2)c1C`, the AC50 was 0.02 µM [falling, full curve, poor fit].
The same measure for `c1ccc(CCNc2nc3ccccc3n3nnnc23)cc1`: 6.31 µM [falling, single point].
With `COc1ccc(Cc2nc3ccc(S(=O)(=O)N4CCOCC4)cc3[nH]2)cc1OC` the figure was 31.6 µM [rising, single point]; with `CC(=O)CC1OC(=O)C(Br)=C1NCc1ccccc1` (stereo unspecified), 0.0501 µM [rising, full curve, poor fit]; with `COc1cc(NC(=O)c2cccc(F)c2)ccc1NC(=O)c1cc2ccccc2o1`, 35.5 µM [falling, single point].
On to `N#CCCSc1ncnc2c1oc1ccccc12`, for which the AC50 was 12.6 µM [rising, partial curve].
With `O=C(OCc1nnc(-c2ccccc2)o1)c1ccc2c(c1)C(=O)N(CCc1ccccc1)C2=O`, the AC50 was 31.6 µM [rising, single point].
`COC(=O)C(C(=O)OC)=C(/C=C/N(C)C)N(C)C`: the AC50 is 0.0794 µM [falling, full curve].
In the case of `O=C(CN1C(=O)C2CC=CCC2C1=O)OCCN1C(=O)c2ccccc2C1=O` (stereo unspecified), the AC50 was 0.0631 µM [rising, full curve, poor fit].
With `Cc1ccc(S(=O)(=O)NC(CC(=O)NCc2ccco2)c2ccco2)cc1` (stereo unspecified), the AC50 was 1.26 µM [falling, single point].
With `COc1nc(C)nc2c1ccc1ccccc12` the figure was 0.2 µM [rising, single point]; with `COc1cc(C(=O)Nc2ccc(NC(=O)c3ccc(Br)cc3)cc2)cc(OC)c1OC`, 35.5 µM [rising, single point]; with `Cc1ccn2c(NC(=O)c3cccs3)c(-c3ccccc3)nc2c1`, 0.112 µM [falling, full curve, poor fit].
With `Cn1c(-c2ccc(-c3ccccc3)cc2)c[nH]c1=S` the figure was 6.31 µM [falling, full curve, poor fit]; with `O=C(NCc1ccccc1Cl)c1csc2c1CCCCC2`, 10 µM [falling, partial curve, poor fit]; with `O=C(CCCN1C(=O)c2ccccc2C1=O)Nc1ccccn1`, 0.158 µM [falling, full curve, poor fit].
For `Cc1nc2sccn2c(=O)c1S(=O)(=O)NCc1ccccc1`, the AC50 was 3.16 µM [falling, partial curve, poor fit].
As to `CCOC(=O)C1CCN(CCC(=O)Nc2ccccc2Cl)CC1`, the AC50 was 31.6 µM [falling, single point].
With `O=C(Nc1ccccc1)C12CC3CC(C1)CC(n1cnc([N+](=O)[O-])n1)(C3)C2` the figure was 0.01 µM [rising, full curve, poor fit]; with `COC1/C=C/OC2(C)Oc3c(C)c(O)c4c(O)c(c(/C=N/N5CCN(C)CC5)c(O)c4c3C2=O)NC(=O)/C(C)=C/C=C/C(C)C(O)C(C)C(O)C(C)C(OC(C)=O)C1C` (stereo unspecified), 31.6 µM [falling, partial curve, poor fit].
With `CCOC(=O)CSc1nc2sc3c(c2c(=O)n1Cc1ccccc1)CC(C)CC3` (stereo unspecified) the figure was 0.00224 µM [rising, full curve].
Consider `O=C(O)c1ccc2cccc(Cl)c2c1O`, for which the AC50 was 15.8 µM [rising, single point].
`CCn1nccc1C(=O)Nc1ccc(Cl)c(Cl)c1`: the AC50 was 0.0126 µM [falling, full curve].
`Cc1nnc(N2C(=O)C(O)=C(C(=O)c3ccco3)C2c2ccc(F)cc2)s1` (stereo unspecified): the half-maximal activity concentration (AC50) is 15.8 µM [rising, partial curve].
On to `CCCCOc1ccc(-c2cc(C(=O)NNC(=S)NCC)c3ccccc3n2)cc1`, for which the AC50 is 5.01 µM [falling, single point].
With `O=C(CSc1nc(O)c(Cc2ccccc2F)c(=O)[nH]1)N1CCCCCC1` the figure was 12.6 µM [falling, partial curve, poor fit]; with `CC(=O)N[C@@H](Cc1c[nH]c2ccccc12)C(=O)OCc1cc(C(F)(F)F)cc(C(F)(F)F)c1`, 6.31 µM [falling, single point]; with `Cc1ccc(C(=O)c2cn(-c3ccc(F)c(Cl)c3)nn2)cc1`, 0.631 µM [rising, partial curve].
The same measure for `COc1ccc(Cl)cc1NC(=O)CSc1nc2ccccc2nc1N1CCCCC1`: 35.5 µM [rising, single point].
For `COCCn1c(=NC(=O)c2ccco2)sc2cc(C(=O)OC)ccc21`, the AC50 was 35.5 µM [rising, partial curve, poor fit].
The same measure for `CCN(CC)c1ncnc2scc(C3COc4ccccc4O3)c12` (stereo unspecified): 20 µM [falling, partial curve, poor fit]; for `CCOc1ccc(/C(O)=C2/C(=O)C(=O)N(CCOCCO)C2c2ccccn2)cc1` (stereo unspecified): 20 µM [rising, partial curve]; for `Cc1ccc(OCc2ccc(C(=O)Nc3nccs3)o2)cc1`: 3.16 µM [falling, single point].
With `O=C(c1csc2c1CCCC2)N1CCN(c2cccc(C(F)(F)F)c2)CC1` the figure was 31.6 µM [falling, partial curve, poor fit]; with `COc1ccc(-c2c(C(C)=O)c(C)nc3sc4c(c23)NC(c2ccccc2)NC4=O)cc1` (stereo unspecified), 12.6 µM [rising, single point].

Values taken from PubChem BioAssay AID901 (National Center for Advancing Translational Sciences (NCATS), 2007).
